In publication PMC11015022 one finds binding data, which are given here for one molecule.

Results are given in words; binding and its absence hold for the method and conditions named. Binding seen in cells or lysates may run through a third protein. Tags and fused reporters may be left off the sequences shown.

The assay deals with HSPA8 protein without the SBD domain (MYC-HSPA8 fragment) (mouse). The assay can be described thus: co-IP; HEK293T cells co-transfected with FLAG- and MYC-tagged mouse constructs, lysate, Western blot. On the technique in general: A western blot detects proteins with antibodies after separation by electrophoresis.

B1: FLAG-SPATA6 (protein, UniProt Q3U6K5 18-488)
chain: VTCPGVVLKDKEDIYLSICVFGQYKKTQCVPATFPLVFNARMVFEKVFPEAVDPGDVVAQLEYDTAVFELIQLVPPVGETLSTYDENTRDFMFPGPNQMSGHHDSNRQVTMRRISGLRGIAPKLEFSTTSVITECLISSRKCRTQDKFTYHSAPVEKSHGRLQCRTSRSQKKKSKSPERSKYCINTKNYEQPTISSKSHSPSPYTKRRMCELSEDTRRRLAHLNLGPYEFKKETDKPPFVIRHVDPPSPRTDNFFGSPGRDCERDGWVRMHSDHPHIGCCRSKDYKVIRSPHGRDFEDPFERCEEYLSPRTCSKPQHSARTLLVHSAPSTTPKHCASPVLNRASLRERFHSDWCSPPNCDEIHDRVKDVLKSHQAHARHLCDERDPEREDELELKRSLLYRDSAYDSDPEYSSFQRPRGSFHLDDGECWSNRAASCKGKSHRPVFENSMDKMYRNLYKKACSSVSHTQESF
For the molecule B1, the binding entry is “no binding”.
